Values from PubChem BioAssay AID652243 (Drosophila RNAi Screening Center, 2013).

Aim: 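Fly genes required for human androgen receptor driven transcription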 (primary screen)
System: Drosophila S2R+ cells
Reagent: long dsRNA against Drosophila genes
Timing: 72 h (48 h, then 24 h hormone)
Treatment: synthetic androgen R1881 at 10 nM for 24 h
Measurement: 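Per-well raw luminescence of the androgen-driven firefly reporter and of the Renilla control, two replicates each, without normalisation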
Scale: firefly reporter light: higher = more light from androgen-responsive reporter; Renilla control light: higher = more constitutive control signal (cell number, transfection)
Active means: 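Across duplicate plates, a knock-down whose log firefly/Renilla ratio shifted a set fold down or up from the GFP/LacZ control mean was a hit; the downward cut appears as both 1.5 and 3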
Meaning of the calls: active = hit: reporter lowered or raised; inactive = no hit
In all, the deposit lists about 24,000 reagents; shown is an unselected part of those that have a named target and a result. In the full data, 246 (1%) got an active call. 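Plates not normalised; calls are printed but the firefly/Renilla ratio behind them is not deposited; fold cut for lowering reported inconsistently.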 Raw values vary from plate to plate and are shown uncorrected. The record does not give: the amount of reagent.

firefly reporter light, replicate 1	firefly reporter light, replicate 2	Renilla control light, replicate 1	Renilla control light, replicate 2	activity call	Gene	DRSC id
1.07e5	92688	1.96e6	1.38e6	inactive	Nuak	DRSC14414
11612	14698	5.65e5	3.57e5	inactive	Nuak	DRSC14415
1.68e5	1.58e5	2.86e6	1.98e6	inactive	Nuak	DRSC14416
				inactive	Nuak	DRSC36920
7.69e5	6.78e5	2.82e6	2.63e6	inactive	Dap160	DRSC03313
7.04e5	6.11e5	8.80e5	8.58e5	inactive	Dap160	DRSC27467
1.38e5	1.16e5	1.05e6	8.87e5	inactive	DIP-gamma	DRSC14873
69605	53539	2.35e5	1.97e5	inactive	BRWD3	DRSC15369
2.36e5	2.71e5	1.04e6	1.14e6	inactive	BRWD3	DRSC16032
1.18e5	71428	1.74e6	9.01e5	inactive	CG31419	DRSC15771
3.97e5	4.54e5	6.49e5	5.49e5	inactive	CG31419	DRSC26294
7.08e5	8.93e5	2.01e6	1.76e6	inactive	CG15536	DRSC15072
7.57e5	1.22e6	7.21e5	9.06e5	inactive	CG15536	DRSC22844
4.89e5	4.31e5	2.68e5	4.62e5	inactive	CG15536	DRSC27663
1.27e5	1.19e5	7.18e5	6.20e5	inactive	CG3609	DRSC00620
4.81e5	4.10e5	1.17e6	7.87e5	inactive	CG3609	DRSC29005
1.73e5	2.49e5	1.83e6	2.93e6	inactive	Awh	DRSC08140
3.40e5	2.79e5	2.20e6	1.77e6	inactive	PGRP-SC2	DRSC06481
3.46e5	4.77e5	6.84e5	6.86e5	inactive	PGRP-SC2	DRSC25449
84877	1.20e5	6.03e5	6.36e5	inactive	Moe	DRSC18684
1.01e6	1.13e6	2.07e6	1.91e6	inactive	Moe	DRSC39153

Quoted from the entries so far (3 entries):
firefly reporter light, replicate 1	firefly reporter light, replicate 2	Renilla control light, replicate 1	Renilla control light, replicate 2	activity call	Gene	DRSC id
1.68e5	1.58e5	2.86e6	1.98e6	inactive	Nuak	DRSC14416
				inactive	Nuak	DRSC36920
7.69e5	6.78e5	2.82e6	2.63e6	inactive	Dap160	DRSC03313

Further results:
firefly reporter light, replicate 1	firefly reporter light, replicate 2	Renilla control light, replicate 1	Renilla control light, replicate 2	activity call	Gene	DRSC id
67085	1.33e5	2.36e6	2.65e6	inactive	Spn88Ea	DRSC17061
5.48e5	3.17e5	1.71e6	1.32e6	inactive	Spn88Ea	DRSC27907
1.36e5	1.13e5	3.92e5	4.33e5	inactive	PGRP-LC	DRSC08980
2.44e5	1.79e5	3.09e6	2.21e6	inactive	PGRP-LC	DRSC10416
1.23e5	1.20e5	1.53e6	1.33e6	inactive	PGRP-LC	DRSC10417
2.76e5	3.09e5	9.07e5	1.59e6	inactive	PGRP-LC	DRSC28556
7.82e5	1.05e6	1.74e6	1.86e6	inactive	Naglu	DRSC02267
8.39e5	8.66e5	1.71e6	1.60e6	inactive	TER94	DRSC07560
2.95e5	2.45e5	6.49e5	8.89e5	inactive	TER94	DRSC27600
9.85e5	7.96e5	1.45e6	1.03e6	inactive	CG32576	DRSC19136
1.17e6	6.30e5	2.58e6	1.60e6	inactive	CG1902	DRSC06798
2.97e5	2.86e5	2.14e6	2.51e6	inactive	dysc	DRSC10273
3.65e5	2.78e5	4.09e6	3.28e6	inactive	dysc	DRSC11040
9.06e5	8.23e5	2.66e6	2.34e6	inactive	dysc	DRSC22334
4.82e5	8.08e5	9.15e5	1.22e6	inactive	dysc	DRSC22824
4.28e5	7.52e5	1.42e6	1.55e6	inactive	dysc	DRSC23128
4.87e5	5.55e5	6.88e5	7.40e5	inactive	dysc	DRSC26188
57669	91827	4.14e5	3.56e5	inactive	kat-60L1	DRSC12184
1.01e6	7.24e5	8.33e5	8.24e5	inactive	kat-60L1	DRSC25414
